Laboratory results taken from publication PMC11806767.
These are yes or no findings as the source states them, for the method shown. In cells and extracts the contact can be indirect. Some entries that bind do so weakly or less than the wild type. Where a sequence is shown, tags or fusion partners need not be part of it.

Chains of the proteins cited; added tags and fusions are not shown.
UniProt Q92176: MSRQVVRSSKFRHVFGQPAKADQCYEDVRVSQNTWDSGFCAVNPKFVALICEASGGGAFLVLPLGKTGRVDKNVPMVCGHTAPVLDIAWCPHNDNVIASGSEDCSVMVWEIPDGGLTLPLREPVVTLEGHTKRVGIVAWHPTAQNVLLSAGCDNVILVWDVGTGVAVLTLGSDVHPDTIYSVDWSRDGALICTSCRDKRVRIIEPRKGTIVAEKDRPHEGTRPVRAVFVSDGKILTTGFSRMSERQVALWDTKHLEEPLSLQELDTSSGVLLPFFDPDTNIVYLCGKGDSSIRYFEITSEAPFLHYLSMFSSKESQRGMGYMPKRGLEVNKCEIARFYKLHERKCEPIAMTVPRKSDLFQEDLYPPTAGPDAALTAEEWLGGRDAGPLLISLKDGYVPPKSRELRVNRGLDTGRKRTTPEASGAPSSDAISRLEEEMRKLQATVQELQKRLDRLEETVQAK

Molecular target: T1, mycobacterial lipoamide dehydrogenase C (LpdC), BiFC fusion (Mycobacterium tuberculosis) (UniProt P9WHH9)
T1 sequence: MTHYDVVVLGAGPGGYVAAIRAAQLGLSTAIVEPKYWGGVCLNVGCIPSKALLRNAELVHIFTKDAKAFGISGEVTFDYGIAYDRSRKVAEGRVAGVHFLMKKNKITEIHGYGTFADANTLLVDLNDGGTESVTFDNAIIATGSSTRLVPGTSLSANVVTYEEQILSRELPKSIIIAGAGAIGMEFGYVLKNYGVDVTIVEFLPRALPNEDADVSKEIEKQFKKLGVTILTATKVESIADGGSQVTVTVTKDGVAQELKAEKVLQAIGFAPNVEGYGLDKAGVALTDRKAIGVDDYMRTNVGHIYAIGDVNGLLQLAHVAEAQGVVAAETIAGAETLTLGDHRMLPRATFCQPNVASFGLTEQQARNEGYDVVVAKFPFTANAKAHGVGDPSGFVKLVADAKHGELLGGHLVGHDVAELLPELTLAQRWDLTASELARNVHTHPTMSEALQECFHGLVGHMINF
Assay: split reporter

Question: For “bovine Coronin-1A, BiFC fusion (from UniProt Q92176 1-461)”, which binding is on record?
Answer: binds
